Measured values taken from the supplement of paper PMC10470496.
Counter-ions that a name gives are not always drawn. The list shows a part of the results. Many values rest on one well or one pass, so single values are uncertain.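 The three strains are clinical Candida auris isolates from the CDC resistance isolate bank, from clades III, IV and I, grown in RPMI-1640 at 35°C. Growth is background-corrected OD600 relative to vehicle-only wells on the same plate; a hit meant over 50% inhibition in at least two strains plus a plate-corrected B-score above 0.1.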

Key:
Assay in all cases: growth relative to vehicle control (OD600 ratio) (fraction); higher = less inhibition
Settings in all cases: 24 h
C. auris AR-384 = tested on: C. auris AR-384
C. auris AR-386 = tested on: C. auris AR-386
C. auris AR-387 = tested on: C. auris AR-387

| Compound | growth (C. auris AR-384; 1 µM) | growth (C. auris AR-384; 10 µM) | growth (C. auris AR-386; 1 µM) | growth (C. auris AR-386; 10 µM) | growth (C. auris AR-387; 1 µM) | growth (C. auris AR-387; 10 µM) |
| --- | --- | --- | --- | --- | --- | --- |
| CN1[C@@H]2CC[C@H]1C[C@@H](OC(=O)c1c[nH]c3ccccc13)C2 [Tropisetron HCl] | 0.94 | 1.39 | 0.74 | 1.28 | 0.81 | 0.87 |
| CN(C)[C@@H]1C(O)=C(C(N)=O)C(=O)[C@@]2(O)C(O)=C3C(=O)c4c(O)ccc(Cl)c4[C@@](C)(O)[C@H]3C[C@@H]12 [Chlortetracycline HCl] | 1.03 | 0.88 | 0.58 | 0.67 | 0.85 | 0.85 |
| COc1cc(NS(=O)(=O)c2ccc(N)cc2)nc(OC)n1 [Sulphadimethoxine] | 0.95 | 0.92 | 0.74 | 1.14 | 0.97 | 0.96 |
| CC(C)CN(C[C@@H](O)[C@H](Cc1ccccc1)NC(=O)O[C@H]1CCOC1)S(=O)(=O)c1ccc(N)cc1 [Amprenavir] | 0.74 | 0.52 | 0.57 | 1.06 | 0.69 | 0.74 |
| O=C(O)c1cccnc1 [Nicotinic Acid] | 0.64 | 1.04 | 1.06 | 0.89 | 0.73 | 0.97 |
| CC[C@@H]1C(=O)N(C)c2cnc(Nc3ccc(C(=O)N[C@H]4CC[C@H](N5CCN(CC6CC6)CC5)CC4)cc3OC)nc2N1C(C)C [Volasertib (BI 6727)] | 0.78 | 0.87 | 0.92 | 0.74 | 1.04 | 1 |
| COc1cc(C2Oc3cc([C@H]4Oc5cc(O)cc(O)c5C(=O)[C@@H]4O)ccc3OC2CO)ccc1O (some centres not stated) [Silibinin] | 0.9 | 0.71 | 0.97 | 1.38 | 0.9 | 0.64 |
| NNC(=O)c1ccncc1.Nc1ccc(C(=O)O)c(O)c1 [Pasiniazid] | 0.85 | 0.65 | 0.78 | 0.73 | 0.77 | 0.95 |
| Nc1nc(CC(=O)Nc2ccc(CCNC[C@H](O)c3ccccc3)cc2)cs1 [Mirabegron] | 0.76 | 0.92 | 0.87 | 0.67 | 0.66 | 1.11 |
| NC(=O)CC[C@@H](N)C(=O)O [D-Glutamine] | 1.04 | 1.09 | 0.97 | 1.2 | 1.04 | 1.05 |
| COCCc1ccc(OCC(O)CNC(C)C)cc1 (configuration not stated) [Metoprolol Tartrate] | 0.92 | 0.92 | 0.88 | 1.08 | 0.69 | 0.89 |
| Fc1ccc([C@@H]2CCNC[C@H]2COc2ccc3c(c2)OCO3)cc1 [Paroxetine HCl] | 1.05 | 1.14 | 0.88 | 0.95 | 0.99 | 0.93 |
| CCN(CC)C(=O)N1CCN(C)CC1 [Diethylcarbamazine citrate] | 0.9 | 0.72 | 0.99 | 0.63 | 0.62 | 0.68 |
| CS(=O)(=O)c1ccc([C@@H](O)[C@@H](CO)NC(=O)C(Cl)Cl)cc1 [Thiamphenicol] | 1.11 | 1.31 | 1.17 | 0.78 | 1.23 | 1.14 |
| O=c1[nH]cc(F)c(=O)[nH]1 [Fluorouracil (5-Fluoracil, 5-FU)] | 0.94 | 1.05 | 1.32 | 1.24 | 1.02 | 0.91 |
| CCc1cc(/C(C)=N/OCc2ccc(C3CCCCC3)c(C(F)(F)F)c2)ccc1CN1CC(C(=O)O)C1 [BAF312 (Siponimod)] | 0.94 | 0.82 | 0.68 | 0.75 | 0.63 | 0.96 |
| Nc1[nH]cnc2ncnc1-2 [Adenine HCl] | 0.92 | 0.71 | 0.93 | 0.89 | 0.91 | 0.86 |
| CC(C)Cn1cnc2c(N)nc3ccccc3c21 [Imiquimod] | 0.8 | 1.29 | 1.12 | 0.98 | 0.9 | 0.96 |
| Cc1ccc(-c2ncc(Cl)cc2-c2ccc(S(C)(=O)=O)cc2)cn1 [Etoricoxib] | 0.78 | 0.81 | 0.83 | 0.98 | 0.89 | 0.92 |
| CC(C)(O/N=C(\C(=O)N[C@@H]1C(=O)N2C(C(=O)[O-])=C(C[n+]3ccccc3)CS[C@H]12)c1csc(N)n1)C(=O)O [Ceftazidime] | 0.83 | 0.93 | 0.65 | 0.73 | 0.69 | 1.03 |
| CN[C@@H]1[C@@H](O)[C@@H](O[C@@H]2[C@@H](O)[C@H](O[C@H]3OC(CN)=CC[C@H]3N)[C@@H](N)C[C@H]2N)OC[C@]1(C)O [Sisomicin sulfate] | 1.23 | 1.27 | 1.07 | 1.4 | 0.93 | 1.12 |
| CC(C)C[C@H](NC(=O)[C@H](CCc1ccccc1)NC(=O)CN1CCOCC1)C(=O)N[C@@H](Cc1ccccc1)C(=O)N[C@@H](CC(C)C)C(=O)[C@@]1(C)CO1 [Carfilzomib (PR-171)] | 1.02 | 0.61 | 0.72 | 0.92 | 0.96 | 1.08 |
| CC(C)(C)C(=O)C(Oc1ccc(Cl)cc1)n1ccnc1 (configuration not stated) [Climbazole] | 0.87 | 0.64 | 0.83 | 0.91 | 0.37 | 0.14 |
| O=C(/C=C/C=C/c1ccc2c(c1)OCO2)N1CCCCC1 [Piperine] | 1 | 0.79 | 0.93 | 0.66 | 0.71 | 0.86 |
| CC1(C)S[C@@H]2[C@H](NC(=O)[C@H](N)c3ccc(O)cc3)C(=O)N2[C@H]1C(=O)O [Amoxicillin] | 1.27 | 0.65 | 1 | 0.78 | 0.9 | 0.77 |
| O=C(CCCCCCC(=O)Nc1ccccc1)NO [Vorinostat (SAHA, MK0683)] | 0.69 | 0.84 | 0.83 | 1.02 | 0.87 | 0.91 |
| CCCN(CCC)C(=O)C1=Cc2ccc(-c3ccc(C(=O)N4CCCC4)cc3)cc2N=C(N)C1 [Motolimod (VTX-2337)] | 0.74 | 0.96 | 1.1 | 0.72 | 0.59 | 0.63 |

3 compounds out of the list, ordered by molecular weight, largest number first.

| Compound | growth (C. auris AR-384; 1 µM) | growth (C. auris AR-384; 10 µM) | growth (C. auris AR-386; 1 µM) | growth (C. auris AR-386; 10 µM) | growth (C. auris AR-387; 1 µM) | growth (C. auris AR-387; 10 µM) |
| --- | --- | --- | --- | --- | --- | --- |
| CC[C@@H]1C(=O)N(C)c2cnc(Nc3ccc(C(=O)N[C@H]4CC[C@H](N5CCN(CC6CC6)CC5)CC4)cc3OC)nc2N1C(C)C [Volasertib (BI 6727)] | 0.78 | 0.87 | 0.92 | 0.74 | 1.04 | 1 |
| COCCc1ccc(OCC(O)CNC(C)C)cc1 (configuration not stated) [Metoprolol Tartrate] | 0.92 | 0.92 | 0.88 | 1.08 | 0.69 | 0.89 |
| CC(C)Cn1cnc2c(N)nc3ccccc3c21 [Imiquimod] | 0.8 | 1.29 | 1.12 | 0.98 | 0.9 | 0.96 |
